Data published in publication PMC3747992.
Substitutions are numbered along the chain they refer to. Numbers in names are those of the source. No constants are given. Whether binding was seen depends on the method and setting. Binding calls can cover weak binding; strength is not graded here. For part of these data: Tags and fused reporters may be left off the sequences shown. For part of these data: Binding seen in cells or lysates may run through a third protein.

Assays:
[1] = molecular target: T1, heterogeneous nuclear ribonucleoprotein L (hnRNP L), endogenous (human (endogenous in U937 and primary PBM)) (UniProt P14866); test: co-IP; IP with anti-hnRNP L antibody from lysates of U937 cells and primary human PBM treated with IFN-γ in normoxia or hypoxia for 24 h; lysates with or without RNase A; immunoblot for hnRNP A2/B1, DRBP76, VHL; also after HA-VHL overexpression in hypoxia (Figure S7)
T1 sequence: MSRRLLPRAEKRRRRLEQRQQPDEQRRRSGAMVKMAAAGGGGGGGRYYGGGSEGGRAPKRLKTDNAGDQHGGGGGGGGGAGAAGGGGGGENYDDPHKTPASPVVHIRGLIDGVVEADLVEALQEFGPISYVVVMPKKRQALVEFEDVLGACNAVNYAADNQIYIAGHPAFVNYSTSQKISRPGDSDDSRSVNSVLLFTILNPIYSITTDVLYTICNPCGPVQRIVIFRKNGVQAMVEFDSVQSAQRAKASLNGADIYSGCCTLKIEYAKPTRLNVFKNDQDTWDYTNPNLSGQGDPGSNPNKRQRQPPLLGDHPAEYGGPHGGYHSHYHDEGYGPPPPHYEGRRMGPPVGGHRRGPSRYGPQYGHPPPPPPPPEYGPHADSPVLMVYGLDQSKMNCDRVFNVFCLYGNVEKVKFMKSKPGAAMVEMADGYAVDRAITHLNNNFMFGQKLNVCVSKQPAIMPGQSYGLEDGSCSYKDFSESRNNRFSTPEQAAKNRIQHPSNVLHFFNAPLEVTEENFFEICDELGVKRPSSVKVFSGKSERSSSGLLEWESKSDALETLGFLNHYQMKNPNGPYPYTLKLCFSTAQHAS

GST-hnRNP L (human) = molecular target: T2, GST-hnRNP L (human) (UniProt P14866); test: pull-down; GST fusion (GST-hnRNP L or GST-hnRNP A2/B1) or GST immobilised on glutathione-agarose; 1 µg recombinant proteins in 20 mM HEPES pH 7.5, 200 mM KCl, 5 mM MgCl2, 0.2% BSA, 10% glycerol, 0.1% Nonidet P-40; 4°C, 2 h; immunoblot; both purified
T2 sequence: T1 sequence

[2] = molecular target: recombinant His-tagged DRBP76; test: co-IP; recombinant DRBP76 and hnRNP A2/B1 (5 pmol each) with phospho-mimetic hnRNP L Y359D (5 pmol) and HSR RNA (5 pmol), 1 h on ice; IP with anti-DRBP76 antibody, immunoblot anti-hnRNP A2/B1; both purified

Molecule: DRBP76 (double-stranded RNA binding protein 76), endogenous
- binding [1]: binds

Molecule: recombinant His-tagged DRBP76
- binding (GST-hnRNP L (human)): binds

B1: recombinant His-tagged phospho-mimetic hnRNP L (Y359D) (protein, UniProt P14866 1-589)
chain: T1 sequence with Y359D
- binding [2]: binds
